Assay results taken from PubChem BioAssay AID504834 (National Center for Advancing Translational Sciences (NCATS), 2011).
In all, about 320,000 compounds went through this assay and about 22,000 (6.9%) were called active. Inconclusive results, whose numbers are uncertain, are shown with a selection of clear calls. Calls come from the whole dose curve; as a rule, active = well fitted inhibition curve with a large enough effect; inconclusive = small, poorly fitted or top-dose-only effect, or another doubt; inactive = no such curve, though single readings can be large or run the other way. Potencies of inconclusive entries are doubtful fits and often do not repeat.

Assay: Primary qHTS for delayed death inhibitors of the malarial parasite plastid, 96 hour incubation
Conditions: P. falciparum luciferase reporter growth; series mostly up to 28.7 µM; activity change, negative = inhibition: at the top concentration
How it was run: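 Luminescence readout: decreased luciferase signal marks inhibited growth of reporter-expressing P. falciparum in infected red cells (2% hematocrit, 0.05% parasitemia final), exposed to compound two generations (96 h, 37 C, 5% CO2).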
% is set by controls: 0 for no effect and ±100 for the full control effect; potency is the fitted concentration of half-maximal effect.

SMILES | Potency | activity change, negative = inhibition
Cc1ccc(O)c(-c2cc(C(=O)NCc3ccncc3)[nH]n2)c1 | active: 4.15 µM | –
CC1CCN(C(=O)C2CCN(c3ncnc4c3nc3n4CCCCC3)CC2)CC1 | inconclusive: 18.5 µM [inhibitor, single point] | –
CCOc1ccc(S(=O)(=O)N2CCC(C(=O)NCC3CCCO3)CC2)cc1Cl (configuration not stated) | inconclusive: 13.1 µM [inhibitor, single point] | –
CCc1sc(C(=O)Nc2ncccc2C)cc1C | – | inactive: -14.9%
O=C(NC1CCCCC1)N(Cc1ccc(F)cc1)Cc1nc2ccccc2c(=O)[nH]1 | – | inactive: 37.9%
CCOC(=O)c1c(C)c(-c2ccccc2)n(CC(=O)NCCC(C)C)c1C | inconclusive: 10.4 µM [inhibitor, partial curve, poor fit] | –
N=C(c1ccc([N+](=O)[O-])cc1)N1CCCCCC1 | inconclusive: 2.33 µM [inhibitor, partial curve, poor fit] | –
Cc1csc2c(N3CCN(C(=O)Nc4ccc(OC(F)(F)F)cc4)CC3)ncnc12 | inconclusive: 0.0329 µM [inhibitor, full curve, poor fit] | –
O=c1c(-c2nnc(SCc3ccc(Cl)c(Cl)c3)o2)cccn1Cc1ccccc1 | inconclusive: 0.0928 µM [inhibitor, full curve, poor fit] | –
OCCC1CN(Cc2cccn2-c2cccnc2)CCN1C1CCCCC1 (configuration not stated) | inconclusive: 11.7 µM [inhibitor, partial curve, poor fit] | –
N#Cc1c(N2CCOCC2)nc(N)c2c(N)nc3c(c12)CC(CCl)O3 (configuration not stated) | inconclusive: 6.57 µM [inhibitor, partial curve] | –
Cc1cc(NCc2ccccn2)n2nc(C)c(-c3ccccc3)c2n1 | active: 2.08 µM | –
COc1ccc(N2CCN(C(=O)CSc3ccc(C)cc3)CC2)cc1 | inconclusive: 8.28 µM [inhibitor, partial curve, poor fit] | –
CCCCCCSc1cc(-c2nc3cc(C)ccn3c2NCCCC)ccc1OC | inconclusive: 11.7 µM [inhibitor, single point] | –
COc1ccccc1-n1c(SCc2cc(=O)oc3cc(O)ccc23)nc2ccccc2c1=O | inconclusive: 18.5 µM [inhibitor, single point] | –
CC(C)=CCC(C)(C)CNC(=O)NC1CCCCC1 | inconclusive: 10.4 µM [inhibitor, single point] | –
Nc1nc(N)c2c(n1)CCCC2 | inconclusive: 11.7 µM [inhibitor, single point] | –
O=[N+]([O-])c1cccc(N2Cc3ccccc3C2)c1 | – | inactive: 61.4%
CN(CCCCCCCCC(=O)/C=N/O)Cc1ccccc1 | active: 2.62 µM | –
COc1ccc(N(CC(=O)Nc2cc(Cl)ccc2C)S(=O)(=O)c2c(C)noc2C)cc1 | inconclusive: 16.5 µM [inhibitor, single point] | –
CCC(=O)N(CCC1(C(C)C)CCOC(C)(C)C1)Cc1ccco1 (configuration not stated) | inconclusive: 5.22 µM [inhibitor, partial curve] | –
COc1cccc2cc(C(=O)C3=C(O)C(=O)N(CCN4CCOCC4)C3c3ccc(Cl)cc3)oc12 (configuration not stated) | – | inactive: -0.764%
Clc1cccc(OCCN2CCNCC2)c1 | – | inactive: 50.6%

Grouped by structure: those above with an NH in an aromatic ring
SMILES | Potency | activity change, negative = inhibition
Cc1ccc(O)c(-c2cc(C(=O)NCc3ccncc3)[nH]n2)c1 | active: 4.15 µM | –
O=C(NC1CCCCC1)N(Cc1ccc(F)cc1)Cc1nc2ccccc2c(=O)[nH]1 | – | inactive: 37.9%

(more compounds)

SMILES | Potency | activity change, negative = inhibition
COc1ccc2c(CCN)c[nH]c2c1 | inconclusive: 7.38 µM [inhibitor, partial curve] | –
Cc1ccc(S(=O)(=O)N2CCN(C(=O)c3cc4c(s3)CCCC4)CC2)c(C)c1 | inconclusive: 18.5 µM [inhibitor, single point] | –
CCc1ccc(-c2cc(C)no2)cc1S(=O)(=O)Nc1ccccn1 | inconclusive: 18.5 µM [inhibitor, single point] | –
CNC(=O)c1ccc(Nc2nnc(-c3ccc(C(N)=O)cc3)c3ccccc23)cc1 | – | inactive: 23.3%
Cc1nnc(-c2ccc(Oc3ccc(Cl)cc3)c([N+](=O)[O-])c2)o1 | inconclusive: 18.5 µM [inhibitor, single point] | –
OC1(c2ccccc2)CN(c2ccccc2)C2=[N+]1CCS2 (configuration not stated) | inconclusive: 9.28 µM [inhibitor, single point] | –
CCCN(CCC)CCNC(=O)c1cc2c(=O)n(C)c3ccccc3c2n1C | inconclusive: 10.4 µM [inhibitor, single point] | –
COc1ccc(NC(=O)NC23CC4(C)CC(C)(CC(C)(C4)C2)C3)cc1OC | inconclusive: 2.33 µM [inhibitor, partial curve, poor fit] | –
N#Cc1cccc(NCC(=O)Nc2cccc(S(=O)(=O)N3CCCCC3)c2)c1 | inconclusive: 18.5 µM [inhibitor, single point] | –
CCCCCCCCn1cnc2c(N)c(C)c(C)cc21 | inconclusive: 18.5 µM [inhibitor, single point] | –
Cc1cccc(CCNC(=O)CCc2c(C)nc3ncnn3c2C)c1 | inconclusive: 18.5 µM [inhibitor, single point] | –
COc1ccccc1Cc1nc2ccccc2n1S(=O)(=O)c1ccc(Cl)cc1 | inconclusive: 2.62 µM [inhibitor, full curve, poor fit] | –
COc1ccc2nc(NCc3cccnc3)sc2c1 | inconclusive: 18.5 µM [inhibitor, single point] | –
CCOC(=O)N1CCN(C(=O)CN(C)S(=O)(=O)c2ccc(Cl)cc2)CC1 | inconclusive: 8.28 µM [inhibitor, partial curve, poor fit] | –
Cc1ccc(-c2nc(CS(=O)CC(=O)NC3CCCCC3)c(C)o2)cc1 (configuration not stated) | inconclusive: 11.7 µM [inhibitor, single point] | –
CC1CC(=O)c2cnc(NCc3ccco3)nc2C1 (configuration not stated) | inconclusive: 13.1 µM [inhibitor, single point] | –
O=C(O)/C=C/C(=O)Nc1ccc(OC(F)F)cc1 | – | inactive: 8.91%
COc1ccccc1C(=O)Nc1ccccn1 | inconclusive: 18.5 µM [inhibitor, single point] | –
Cn1ccs/c1=N\S(=O)(=O)c1ccc(Br)cc1 | inconclusive: 4.15 µM [inhibitor, single point] | –
CC(C)c1ccc(-c2nnc(N)s2)cc1 | – | inactive: 44%
CC1=C(C(=O)Nc2cccc(C(=O)NCc3ccc(F)cc3)c2)SCCO1 | inconclusive: 13.1 µM [inhibitor, single point] | –
Cc1ccc(C)c(OCCCN2CCNCC2)c1 | inconclusive: 18.5 µM [inhibitor, single point] | –
COc1ccc(S(=O)(=O)N2CCCOC2CNC(=O)C(=O)NCc2cccnc2)cc1 (configuration not stated) | – | inactive: 2.03%

Given field by field: entries from further up
COc1ccc2c(CCN)c[nH]c2c1
  Potency: inconclusive: 7.38 µM [inhibitor, partial curve]
N#Cc1cccc(NCC(=O)Nc2cccc(S(=O)(=O)N3CCCCC3)c2)c1
  Potency: inconclusive: 18.5 µM [inhibitor, single point]
CC1=C(C(=O)Nc2cccc(C(=O)NCc3ccc(F)cc3)c2)SCCO1
  Potency: inconclusive: 13.1 µM [inhibitor, single point]

Additional entries:

SMILES | Potency | activity change, negative = inhibition
O=C(/C=C/c1ccc(Cl)cc1)NCCN1CCOCC1 | inconclusive: 0.0657 µM [inhibitor, full curve, poor fit] | –
CN(C)c1ccc(/C=C/c2cc[n+](C)cc2)cc1 | inconclusive: 0.522 µM [inhibitor, full curve, poor fit] | –
COc1ccc(NC(=O)/C(=C\c2cc(OC)c(OC)cc2[N+](=O)[O-])NC(=O)c2ccccc2)cc1 | inconclusive: 18.5 µM [inhibitor, single point] | –
O=C1c2nc3ccccn3c2C(=O)N1Cc1ccccc1 | inconclusive: 11.7 µM [inhibitor, partial curve, poor fit] | –
NC(=O)C1Cc2ccccc2CN1C(=O)c1nn(Cc2ccccc2)c(=O)c2ccccc12 (configuration not stated) | active: 5.86 µM | –
COc1ccc(CCNC(=O)CC2SC(=NCc3ccccc3OC)NC2=O)cc1 (configuration not stated) | inconclusive: 0.828 µM [inhibitor, full curve] | –
C#Cc1ccc([C@@H]2C=C(C(=O)OCC=C)O[C@H](OCCCCO)C2)cc1 | inconclusive: 10.4 µM [inhibitor, single point] | –
CCC/C(O)=C1\C(=O)CC(c2ccccc2)CC1=NCCc1c(C)[nH]c2ccc(C)cc12 (configuration not stated) | inconclusive: 13.1 µM [inhibitor, single point] | –
Cc1ncsc1C(=O)N1N=C2/C(=C/c3ccccc3)CCCC2C1c1ccccc1 (configuration not stated) | inconclusive: 18.5 µM [inhibitor, partial curve, poor fit] | –
Cc1ccc(OCCOCCn2cnc3ccccc3c2=O)c([N+](=O)[O-])c1 | inconclusive: 1.65 µM [inhibitor, partial curve, poor fit] | –
COc1ccc(-c2csc(NC(=O)CN3C(=O)C4CCCCC4C3=O)n2)c(OC)c1 (configuration not stated) | inconclusive: 11.7 µM [inhibitor, single point] | –
Cc1ccc(S(=O)(=O)N2CC(C)C(=O)CC2C)cc1 (configuration not stated) | inconclusive: 18.5 µM [inhibitor, single point] | –
Cn1c(SC2CCCCC2=O)nnc1-c1ccccc1F (configuration not stated) | – | inactive: -5.55%
O=C(CN1C(=O)NC2(CCOc3ccccc32)C1=O)c1ccc(Cl)s1 (configuration not stated) | inconclusive: 7.38 µM [inhibitor, partial curve, poor fit] | –
O=C(COc1cccc2ccccc12)N/N=C/C=C/c1ccccc1 | – | inactive: -3.8%
CC1CCCCC1NC(=O)CN1CCN(Cc2ccccc2Cl)C1=O (configuration not stated) | inconclusive: 4.15 µM [inhibitor, single point] | –
CNC(=O)Cc1csc2ccc(Cl)cc12 | inconclusive: 0.415 µM [inhibitor, full curve] | –
CCN1CCN(Cc2ccc(OCc3ccccc3)cc2)CC1 | inconclusive: 5.86 µM [inhibitor, partial curve] | –
C/C(=N\NC(=O)CNC(=O)C(c1ccccc1)c1ccccc1)c1ccc(C(C)(C)C)cc1 | – | inactive: 20.5%
CCOCCCNc1c2c(nc3cc(-c4ccc(F)cc4)nn13)CCC2 | inconclusive: 0.828 µM [inhibitor, partial curve, poor fit] | –
CCN1CCN(C(c2ccccn2)c2c(NC(=O)c3ccccc3)sc(C)c2C)CC1 (configuration not stated) | active: 13.1 µM | –
